In PubChem BioAssay AID488837 (National Center for Advancing Translational Sciences (NCATS), 2010):
About 20 (0.006%) of roughly 330,000 compounds were called active. Inconclusive means that the source gave no clear call. Such entries were picked first, then a sample of the others. Calls come from the whole dose curve; as a rule, active = well fitted inhibition curve with a large enough effect; inconclusive = small, poorly fitted or top-dose-only effect, or effect the other way; inactive = flat fitted curve, though single readings scatter. A potency beside an inconclusive call is a rough fit, not a confirmed value.

Amino acid sequences for entries named in this document (tags omitted).
UniProt O00167, whole entry, looked up: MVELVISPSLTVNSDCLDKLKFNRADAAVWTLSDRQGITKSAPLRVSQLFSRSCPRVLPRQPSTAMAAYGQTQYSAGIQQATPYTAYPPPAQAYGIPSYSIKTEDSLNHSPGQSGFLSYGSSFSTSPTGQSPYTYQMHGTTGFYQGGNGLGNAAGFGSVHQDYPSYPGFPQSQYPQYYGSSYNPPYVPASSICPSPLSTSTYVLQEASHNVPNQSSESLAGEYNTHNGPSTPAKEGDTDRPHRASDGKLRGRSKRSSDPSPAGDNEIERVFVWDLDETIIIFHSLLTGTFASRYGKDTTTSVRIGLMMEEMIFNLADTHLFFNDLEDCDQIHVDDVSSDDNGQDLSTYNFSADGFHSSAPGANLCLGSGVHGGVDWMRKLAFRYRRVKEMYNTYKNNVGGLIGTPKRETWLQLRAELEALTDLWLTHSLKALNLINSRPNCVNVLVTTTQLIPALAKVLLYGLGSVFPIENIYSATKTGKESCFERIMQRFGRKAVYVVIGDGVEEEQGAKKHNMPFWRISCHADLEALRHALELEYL

What follows are molecules tested against Protein phosphatase EYA2 (Homo sapiens) (UniProt O00167) (assay: qHTS Assay for Inhibitors of the Phosphatase Activity of Eya2). Settings: recombinant Eya2, OMFP fluorescence dephosphorylation (OMFP is methylfluorescein phosphate).
Outline: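 Eya2 protein (added as 0.2 uM solution) was preincubated with compound for 10 min at ambient temperature in 50 mM HEPES pH 7.5, 50 mM NaCl, 5 uM MgCl2, 0.05% BSA, 1 mM DTT. OMFP (added at 50 uM) then reacted 10 min; fluorescence read at 485/525 nm.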
Potency is the fitted concentration of half-maximal effect.

SMILES	Potency
Cc1ccc(CCNS(=O)(=O)c2c(C)nc3sccn3c2=O)cc1	inconclusive: 79.4 µM [inhibitor, partial curve]
COc1ccc(CCNC(=O)CC(Cc2ccccc2)C(=O)O)cc1OC (centres undefined)	inconclusive: 22.4 µM [inhibitor, single point]
Cc1cc(C(=O)Nc2ccccc2N2CCCCC2)no1	inconclusive: 89.1 µM [inhibitor, partial curve, poor fit]
O=C(NC1CCCN(CCc2ccccc2)C1)c1c(F)cccc1F (centres undefined)	inconclusive: 25.1 µM [inhibitor, single point]
Cc1cc(OCCCCOc2ccc(C#N)cc2)ccc1[N+](=O)[O-]	inconclusive: 100 µM [inhibitor, single point]
O=[N+]([O-])c1cccnc1N1CCCCC1	inconclusive: 22.4 µM [inhibitor, single point]
CNCC(O)CN1CCN(c2ccccc2OC)CC1 (centres undefined)	inconclusive: 100 µM [inhibitor, single point]
CCOC(=O)N1CCC(N2Cc3cccc(C(=O)Nc4ccc(N(CC)CC)cc4C)c3C2=O)CC1	inconclusive: 79.4 µM [inhibitor, single point]
CN(CC(=O)Nc1c(Cl)cccc1Cl)C(=O)CC1OC(=O)c2ccccc21 (centres undefined)	inactive
CC(C)C(OC(=O)c1cccs1)C(=O)NCc1ccccc1 (centres undefined)	inconclusive: 25.1 µM [inhibitor, single point]
O=C(COc1ccc(S(=O)(=O)N2CCOCC2)cc1)NCc1ccccc1	inconclusive: 447 µM [inhibitor, partial curve, poor fit]
N#C/C(=C(/O)CCl)c1nc(-c2ccccc2)cs1	inconclusive: 79.4 µM [inhibitor, partial curve, poor fit]
CCc1ccc(-c2csc3nc[nH]c(=O)c23)cc1	inconclusive: 200 µM [inhibitor, partial curve]
Cc1c(C(=O)N/N=C/c2ccc(O)c(Br)c2)sc(N)c1C#N	inactive
CC1CN(C(=O)/C=C/c2ccc([N+](=O)[O-])s2)CC(C)O1 (centres undefined)	inconclusive: 20 µM [inhibitor, single point]
O=C(NCCN1CCN(Cc2ccccc2)CC1)C1CC(=O)N(C2CCCC2)C1 (centres undefined)	inconclusive: 25.1 µM [inhibitor, single point]
COc1ccccc1NC(=S)NCCc1ccc(OC)c(OC)c1	inconclusive: 100 µM [inhibitor, single point]
COc1cc(C(=O)OCC(=O)NC(C)CCc2ccccc2)cc(OC)c1OC (centres undefined)	inconclusive: 25.1 µM [inhibitor, single point]
CC(C)CC1NC(=O)N(CC(=O)N2c3ccccc3NC(=O)C2(C)C)C1=O (centres undefined)	inconclusive: 89.1 µM [inhibitor, single point]
O=C(O)c1ccc(CN2C(=O)c3cccc4c([N+](=O)[O-])ccc(c34)C2=O)cc1	inconclusive: 25.1 µM [inhibitor, single point]
COc1ccc(CCNc2oc(-c3ccco3)nc2C#N)cc1	inactive
CCc1cc2c(=O)c(-c3cnn(-c4ccccc4)c3)c(C)oc2c(CN2CCCCC2)c1O	inconclusive: 25.1 µM [inhibitor, single point]
CC(=O)c1cccc(NC(=O)c2ccc3c(=O)n4c(nc3c2)CCCCC4)c1	inconclusive: 141 µM [inhibitor, partial curve, poor fit]

Single values from the list:
In Potency, CC(=O)c1cccc(NC(=O)c2ccc3c(=O)n4c(nc3c2)CCCCC4)c1 shows inconclusive: 141 µM [inhibitor, partial curve, poor fit]
In Potency, Cc1cc(C(=O)Nc2ccccc2N2CCCCC2)no1 shows inconclusive: 89.1 µM [inhibitor, partial curve, poor fit]
In Potency, COc1ccc(CCNc2oc(-c3ccco3)nc2C#N)cc1 shows inactive

Next results.

SMILES	Potency
Cc1ccc(NC(=O)CSc2nc3ccccc3nc2N2CCCC2)cc1	inconclusive: 22.4 µM [inhibitor, partial curve, poor fit]
Cn1nccc1C(=O)N/N=C/c1c(O)ccc2ccccc12	inconclusive: 63.1 µM [inhibitor, partial curve, poor fit]
Cc1ccc(N(CC(=O)NC2CCCCC2)C(=O)c2ccc(C)s2)cc1	inconclusive: 22.4 µM [inhibitor, single point]
O=C1C(Cl)=C(NS(=O)(=O)c2ccc([N+](=O)[O-])cc2)C(=O)c2ccccc21	inconclusive: 22.4 µM [inhibitor, single point]
Cc1sc2ncn(CC(=O)N3CCN(c4ccccn4)CC3)c(=O)c2c1S(=O)(=O)N1CCC(C)CC1	inconclusive: 2240 µM [inhibitor, partial curve]
Cc1[nH]c2ccccc2c1/C=N/NC(=O)c1ccccc1	inconclusive: 56.2 µM [inhibitor, partial curve, poor fit]
O=C(NC12CC3CC(CC(C3)C1)C2)c1ccc(-c2cccc(Cl)c2)o1	inactive
CN=c1scc(C)n1/N=C/c1ccc(O)cc1	inactive
CCN(CC)CCN(C(=O)c1ccc2ccccc2c1)c1nc2ccc(OC)cc2s1	inconclusive: 79.4 µM [inhibitor, single point]
COc1ccc(C(=O)C2CC2c2ccc3c(c2)OCO3)cc1 (centres undefined)	inconclusive: 100 µM [inhibitor, single point]
Cc1nc(CN(C)C(=O)CC2C(=O)NCCN2Cc2ccc(-c3ccccc3)cc2)cs1 (centres undefined)	inconclusive: 1260 µM [inhibitor, partial curve, poor fit]
COc1ccc(C2=NN(C(=O)CSc3cn(C)c4ccccc34)C(c3ccc(OC)cc3)C2)cc1 (centres undefined)	inconclusive: 15.8 µM [inhibitor, single point]
Cc1cc(C)c(NC(=O)C(C)N2CCCCCC2)c(C)c1 (centres undefined)	inconclusive: 22.4 µM [inhibitor, single point]
Oc1ccc(NCc2cccs2)cc1	inactive
COc1ccc(OC)c(-c2cc(C(=O)Nc3sc4c(c3C#N)CCC(C)C4)c3ccccc3n2)c1 (centres undefined)	inactive
CNC(=S)N1CCN(C(c2ccccc2)c2ccccc2)CC1	inconclusive: 20 µM [inhibitor, single point]
Cc1cc(C)n(CC(=O)N/N=C/c2cc([N+](=O)[O-])ccc2O)n1	inactive
CCOc1ccc(NC2=C(OC)C(=O)c3ccccc3C2=O)cc1	inactive
COc1ccc(CC(=O)NNC(=S)NC(=O)c2cccnc2)cc1	inconclusive: 100 µM [inhibitor, single point]
CC(=O)Nc1cccc(Nc2nc(-c3ccccc3)nc3ccccc23)c1	inconclusive: 25.1 µM [inhibitor, single point]
CC(C)(C)NC(=O)CN1C(=O)/C(=C/c2ccccc2)SC1=S	inactive
CN(C)c1ccc(NC(=O)c2cn(-c3ccccc3)nc2-c2cccs2)cc1	inconclusive: 79.4 µM [inhibitor, single point]
Cc1ccc(SCC(=O)Nc2ccc(N3CCN(C)CC3)c(F)c2)cc1	inactive

SMILES	Potency
Cc1nc2ccc3nc(NC(=O)C4COc5ccccc5O4)sc3c2s1 (centres undefined)	inactive
CCC(C)(C)c1ccc(OCCCC[n+]2cccc(C)c2)c(C(C)(C)CC)c1	inactive
CCn1nc(C)c(Br)c1-c1nc(-c2cccc(C)c2)no1	inconclusive: 224 µM [inhibitor, partial curve]
COc1cc(OC)cc(C(=O)Nc2ccccc2-c2nnn(CC(=O)Nc3cc(C)on3)n2)c1	inconclusive: 25.1 µM [inhibitor, single point]
O=C(CCc1ccc(S(=O)(=O)NCc2ccccc2)cc1)NCc1ccc2c(c1)OCO2	inconclusive: 79.4 µM [inhibitor, single point]
Clc1ccc(OCCCCN2CCCCC2)cc1	inconclusive: 100 µM [inhibitor, single point]
CCc1ccccc1OCC(=O)Nc1ccc(S(N)(=O)=O)cc1	inconclusive: 14.1 µM [inhibitor, single point]
O=C(Nc1nc(-c2ccccc2)nc2ccccc12)c1ccc(F)cc1	inactive
CC(C)OCC(O)CN1CCC(Cc2ccccc2)CC1 (centres undefined)	inconclusive: 224 µM [inhibitor, partial curve]
CC(CN1CCCC1)OC(=O)c1cccc(F)c1 (centres undefined)	inconclusive: 89.1 µM [inhibitor, single point]
COc1ccc(C(=O)COC(=O)c2ccc([N+](=O)[O-])s2)cc1OC	inconclusive: 35.5 µM [inhibitor, partial curve, poor fit]
O=C(N/N=C/c1ccoc1)c1cc(O)cc(O)c1	inactive
COc1cccc(C(=O)NNC(=O)c2cccc(F)c2)c1	inconclusive: 100 µM [inhibitor, single point]
COc1ccccc1N=C1NC(=O)/C(=C/c2ccc(N(C)C)cc2)S1	inconclusive: 25.1 µM [activator, partial curve]
COc1ccccc1CNc1ccc(Br)cn1	inconclusive: 100 µM [inhibitor, single point]
COc1cc(OC)c(/C=N/NC(=O)COc2cccc3cccnc23)c(OC)c1	inconclusive: 100 µM [inhibitor, single point]
CSc1cccc(NC(N)=S)c1	inconclusive: 89.1 µM [inhibitor, single point]
COc1ccc(NC(=O)CCS(=O)(=O)c2cccc3nonc23)cc1	inconclusive: 89.1 µM [inhibitor, single point]
Cc1onc(NC(=O)c2ccc([N+](=O)[O-])o2)c1Br	inconclusive: 89.1 µM [inhibitor, single point]
O=P(CCO)(c1ccccc1)c1ccccc1	inactive
C(=N\Nc1nc2ccccc2s1)/c1ccccn1	inactive
O=C(O)c1ccccc1Nc1ccc2nonc2c1[N+](=O)[O-]	inconclusive: 70.8 µM [inhibitor, partial curve]
O=C(N/N=C/c1ccco1)C(O)c1ccccc1 (centres undefined)	inconclusive: 178 µM [inhibitor, partial curve]
